Earlier results, collected in US9498479B2, “Dihydropyrimidine compounds and their application in pharmaceuticals” (SUNSHINE LAKE PHARMA CO., LTD., priority 2013, dated 2016).
At least one structure is not confirmed: it was looked up by name or label, or the drawing left a doubt.

Test system: HBV
Details: Science, 2003, 299, 893-896; cited from earlier work

Nc1ccn([C@@H]2CS[C@H](CO)O2)c(=O)n1 [lamivudine]
IC50: 300 nM
